Measured values from patent US20130323786A1.

Assays:
LINGO-1 (human) [1] = test: ELISA and FACS
LINGO-1 (human) [2] = test: LINGO-1 ELISA
LINGO-1 (human) [3] = test: ELISA

binding (LINGO-1 (human) [1])	Binder	further results
binds	Li62 Fab (Fab, V domains shown) VH: EVQLLESGGGLVQPGGSLRLSCAASGFTFSIYPMFWVRQAPGKGLEWVSWIGPSGGITKYADSVKGRFTISRDNSKNTLYLQMNSLRAEDTATYYCAREGHNDWYFDLWGRGTLVTVSS VL: DIQMTQSPSFLSASVGDSVAITCRASQDISRYLAWYQQRPGKAPKLLIYDASNLQTGVPSRFSGSGSGTDFTFTITSLQPEDFGTYYCQQYDTLHPSFGPGTTVDIK	–
–	Li113 Fab (Li62 variant C02, VH CDR3 SEQ ID NO:30) (Fab, V domains shown) VH: EVQLLESGGGLVQPGGSLRLSCAASGFTFSIYPMFWVRQAPGKGLEWVSWIGPSGGITKYADSVKGRFTISRDNSKNTLYLQMNSLRAEDTATYYCAREGTYDWYLDLWGRGTLVTVSS VL: DIQMTQSPSFLSASVGDSVAITCRASQDISRYLAWYQQRPGKAPKLLIYDASNLQTGVPSRFSGSGSGTDFTFTITSLQPEDFGTYYCQQYDTLHPSFGPGTTVDIK	binding (LINGO-1 (human) [2]): binds
–	PEG-Li33 Fab' (Fab, V domains shown, 10 kDa methoxy-polyethyleneglycol maleimide on the 2 free hinge Cys residues) VH: EVQLLESGGGLVQPGGSLRLSCAASGFTFSIYPMFWVRQAPGKGLEWVSWIGPSGGITKYADSVKGRFTISRDNSKNTLYLQMNSLRAEDTATYYCAREGHNDWYFDLWGRGTLVTVSS VL: DIQMTQSPGTLSLSPGERATLSCRASQSVSSYLAWYQQKPGQAPRLLIYDASNRATGIPARFSGSGSGTEFTLTISSLQSEDFAVYYCQQYDKWPLTFGGGTKVEIKR	binding (LINGO-1 (human) [3]): binds
binds	Li62 (agly) (antibody, V domains shown) VH: EVQLLESGGGLVQPGGSLRLSCAASGFTFSIYPMFWVRQAPGKGLEWVSWIGPSGGITKYADSVKGRFTISRDNSKNTLYLQMNSLRAEDTATYYCAREGHNDWYFDLWGRGTLVTVSS VL: DIQMTQSPSFLSASVGDSVAITCRASQDISRYLAWYQQRPGKAPKLLIYDASNLQTGVPSRFSGSGSGTDFTFTITSLQPEDFGTYYCQQYDTLHPSFGPGTTVDIK	–

No constants are given. Whether binding was seen depends on the method and setting. Binding calls can cover weak binding; strength is not graded here.
